Data: paper PMC5003816

Chains of the proteins cited; added tags and fusions are not shown. Lines headed by an entry give the natural chain unless they say otherwise; changes in a name come on top.
UniProt Q9UHD9: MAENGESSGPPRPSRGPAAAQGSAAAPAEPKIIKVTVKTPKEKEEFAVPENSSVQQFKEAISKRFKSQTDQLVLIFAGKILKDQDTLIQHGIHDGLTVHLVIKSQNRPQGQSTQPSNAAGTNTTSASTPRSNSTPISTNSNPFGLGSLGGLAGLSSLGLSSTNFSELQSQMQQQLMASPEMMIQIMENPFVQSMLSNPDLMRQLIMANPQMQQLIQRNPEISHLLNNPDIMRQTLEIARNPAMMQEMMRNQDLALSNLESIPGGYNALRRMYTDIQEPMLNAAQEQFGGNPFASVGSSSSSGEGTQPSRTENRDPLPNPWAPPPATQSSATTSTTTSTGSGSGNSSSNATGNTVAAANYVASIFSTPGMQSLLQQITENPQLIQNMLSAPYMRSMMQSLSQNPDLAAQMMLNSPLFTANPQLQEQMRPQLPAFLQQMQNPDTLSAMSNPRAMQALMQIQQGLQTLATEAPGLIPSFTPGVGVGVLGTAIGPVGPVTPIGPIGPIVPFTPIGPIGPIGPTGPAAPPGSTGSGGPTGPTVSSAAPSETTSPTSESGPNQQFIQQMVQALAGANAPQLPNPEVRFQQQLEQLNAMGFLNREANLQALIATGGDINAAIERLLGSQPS
UniProt P11142: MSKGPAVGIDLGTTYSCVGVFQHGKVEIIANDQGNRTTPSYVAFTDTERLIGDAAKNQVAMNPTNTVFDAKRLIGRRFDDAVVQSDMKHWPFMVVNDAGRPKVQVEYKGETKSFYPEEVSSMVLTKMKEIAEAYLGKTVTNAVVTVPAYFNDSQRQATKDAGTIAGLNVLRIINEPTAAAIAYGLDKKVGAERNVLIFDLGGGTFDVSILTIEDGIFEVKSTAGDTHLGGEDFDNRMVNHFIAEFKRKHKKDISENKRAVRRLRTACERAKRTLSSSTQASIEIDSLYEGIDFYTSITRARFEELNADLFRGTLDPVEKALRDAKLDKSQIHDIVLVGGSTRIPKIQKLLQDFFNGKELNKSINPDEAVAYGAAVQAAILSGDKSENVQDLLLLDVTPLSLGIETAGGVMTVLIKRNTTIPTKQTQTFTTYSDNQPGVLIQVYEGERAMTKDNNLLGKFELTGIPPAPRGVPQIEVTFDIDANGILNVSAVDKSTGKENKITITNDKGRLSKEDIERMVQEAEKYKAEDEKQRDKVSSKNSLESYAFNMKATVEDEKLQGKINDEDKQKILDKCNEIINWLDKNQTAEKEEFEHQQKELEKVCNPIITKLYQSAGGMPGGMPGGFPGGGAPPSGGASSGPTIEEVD
UniProt P60900: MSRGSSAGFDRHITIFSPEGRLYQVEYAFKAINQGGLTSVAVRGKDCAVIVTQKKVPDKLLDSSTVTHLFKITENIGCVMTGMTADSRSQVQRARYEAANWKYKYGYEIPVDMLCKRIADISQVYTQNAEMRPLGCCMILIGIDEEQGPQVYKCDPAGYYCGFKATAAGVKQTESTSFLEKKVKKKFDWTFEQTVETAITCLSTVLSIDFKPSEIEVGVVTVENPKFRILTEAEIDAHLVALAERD

Legend:
FLAG-UBQLN2 WT (human) = FLAG-UBQLN2 WT (human) (UniProt Q9UHD9); test: affinity purification with mass spectrometry; SILAC proteomics on FLAG IP from cells stably expressing inducible FLAG-UBQLN2 WT or P506T
[1] = molecular target: FLAG-UBQLN2 P506T (human) (UniProt Q9UHD9); test: as above

| binding (FLAG-UBQLN2 WT (human)) | binding [1] | Substance |
| --- | --- | --- |
| binds |  | HSPA8 (endogenous in HEK293) (from UniProt P11142 1-646) |
| binds | binds | PSMA6 (from UniProt P60900 1-246) |

Results are given in words; binding and its absence hold for the method and conditions named. In cells and extracts the contact can be indirect. Here binding means that the protein was enriched with, or labelled near, the bait; the list need not be complete.
